{"sequences": {"note": "Protein sequences, listed by entry. Tags and fused reporters are not part of them.", "UniProt Q01831": "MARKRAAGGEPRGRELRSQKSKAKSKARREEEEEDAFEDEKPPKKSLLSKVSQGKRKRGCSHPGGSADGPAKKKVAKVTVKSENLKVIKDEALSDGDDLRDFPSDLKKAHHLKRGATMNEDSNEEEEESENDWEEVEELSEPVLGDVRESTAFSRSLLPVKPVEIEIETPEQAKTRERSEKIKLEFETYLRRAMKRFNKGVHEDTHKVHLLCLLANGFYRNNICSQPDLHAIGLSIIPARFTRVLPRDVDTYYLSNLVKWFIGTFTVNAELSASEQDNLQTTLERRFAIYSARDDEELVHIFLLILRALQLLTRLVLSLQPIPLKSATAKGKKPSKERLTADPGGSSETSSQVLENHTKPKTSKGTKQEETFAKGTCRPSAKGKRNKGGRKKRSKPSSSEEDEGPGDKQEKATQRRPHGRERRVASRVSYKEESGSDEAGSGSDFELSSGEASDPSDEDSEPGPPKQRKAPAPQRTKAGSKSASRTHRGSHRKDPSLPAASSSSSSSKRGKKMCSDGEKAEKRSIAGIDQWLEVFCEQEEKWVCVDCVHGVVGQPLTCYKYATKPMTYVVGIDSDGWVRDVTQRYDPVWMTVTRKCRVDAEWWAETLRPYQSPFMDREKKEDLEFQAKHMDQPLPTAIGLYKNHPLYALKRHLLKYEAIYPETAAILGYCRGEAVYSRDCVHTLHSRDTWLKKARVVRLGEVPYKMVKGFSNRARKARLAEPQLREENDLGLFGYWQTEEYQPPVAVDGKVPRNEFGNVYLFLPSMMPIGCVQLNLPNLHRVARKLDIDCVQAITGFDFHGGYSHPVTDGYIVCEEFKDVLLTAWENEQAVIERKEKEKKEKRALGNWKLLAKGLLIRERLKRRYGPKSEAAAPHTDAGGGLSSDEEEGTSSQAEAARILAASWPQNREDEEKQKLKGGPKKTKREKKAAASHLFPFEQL", "UniProt P54725": "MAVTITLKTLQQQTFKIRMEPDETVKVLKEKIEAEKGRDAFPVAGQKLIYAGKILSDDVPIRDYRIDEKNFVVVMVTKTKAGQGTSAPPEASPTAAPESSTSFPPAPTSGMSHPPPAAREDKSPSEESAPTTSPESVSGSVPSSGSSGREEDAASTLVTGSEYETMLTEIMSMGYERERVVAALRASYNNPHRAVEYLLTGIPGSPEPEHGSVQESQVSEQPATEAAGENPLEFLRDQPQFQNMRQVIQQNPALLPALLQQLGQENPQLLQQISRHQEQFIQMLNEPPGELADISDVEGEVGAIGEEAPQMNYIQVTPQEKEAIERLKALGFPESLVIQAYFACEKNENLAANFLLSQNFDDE"}, "source": "paper PMC8617076", "biological_target": "FLAG-tagged XPC (human) (UniProt Q01831)", "assay": "co-IP; whole-cell extracts of transfected HEK293T cells, FLAG-M2 beads, elution with FLAG peptide under native conditions, immunoblot for FLAG, HA, myc tags or hHR23B", "note": "These are yes or no findings as the source states them, for the method shown. Binding seen in cells or lysates may run through a third protein. Some results given as binding are weak or reduced against the parent protein; the word gives no strength.", "data": [{"substance": "HA-tagged hHR23AFL (from UniProt P54725 1-363)", "values": [{"measurement": "binding", "value": "binds"}]}]}
